According to publication PMC11924328:
For at least one entry, the source does not settle the construct or the ends of the probe. At least one verdict rests on a figure or table, not on a statement of the authors.

Chains of the proteins cited; added tags and fusions are not shown. Residues count along the entry.
UniProt P08962, 2-238: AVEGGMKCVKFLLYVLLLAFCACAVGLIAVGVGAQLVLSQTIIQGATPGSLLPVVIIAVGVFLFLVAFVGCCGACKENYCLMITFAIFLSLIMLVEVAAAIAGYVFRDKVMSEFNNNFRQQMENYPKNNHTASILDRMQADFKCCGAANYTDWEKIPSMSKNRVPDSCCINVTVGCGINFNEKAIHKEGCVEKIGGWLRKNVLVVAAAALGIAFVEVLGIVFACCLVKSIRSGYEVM

Molecular target: CD63 on neutrophil-derived extracellular vesicles (NEVs) (human (peripheral blood neutrophils)) (UniProt P08962)
Test: RCA-MB detection of aptamer retained on NEVs after washing
Details: 37 C, 1 h, 5 PBS washes, 95 C release, labeling state of aptamer not stated; native protein; single-stranded DNA

CACCCCACCTCGCTCCCGTGACACTAATGCTA [CD63 apt (unlabeled)]
binding result: binds
